# According to PubChem BioAssay AID2417 (National Center for Advancing Translational Sciences (NCATS), 2010):
# Out of some 140,000 compounds screened, about 4,300 (3.1%) were called active. Inconclusive results, whose numbers are uncertain, are shown with a selection of clear calls.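 Rule for the calls: active = readout at or below -70, meaning at least 70% loss of cells showing the perinucleolar compartment, a nuclear body marking cancer cells; inconclusive = readout between -30 and a set limit; inactive = the rest.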
# Experiment: High Content Assay for Compounds that inhibit the Assembly of the Perinucleolar Compartment;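 note: plate controls were DMSO wells for no effect and camptothecin positive control wells for full effect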
# Settings: PC3M PTB-GFP, PNC prevalence imaging, 16 h; at 10 µM; active compounds read low
# How it was run: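 Compounds are pinned in duplicate onto adhered PC3M cells stably expressing GFP-tagged PTB and incubated 16 h at 37 C. Cells are then fixed, nuclei stained with Hoechst, and PNC-positive cells counted.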
row,SMILES,"activity change (PNC), negative = inhibition"
1,Cc1ccc(-c2noc(CCC(=O)N3CCN(c4cccc(C(F)(F)F)c4)CC3)n2)cc1,inconclusive: -37.9%
2,CCOc1ccc(C2C(C(=O)c3ccco3)=C(O)C(=O)N2Cc2cccnc2)cc1 (configuration not stated),inconclusive: -41.2%
3,CC1=C(C(=O)OCC(C)C)C(c2cccs2)NC(=S)N1 (configuration not stated),inconclusive: -44.2%
4,CCC(C)c1ccc(OCCn2ccnc2)cc1 (configuration not stated),inconclusive: -44.1%
5,CCOC(=O)N1CCN(CC(O)COC(CC)c2ccccc2)CC1 (configuration not stated),inconclusive: -48.2%
6,CCc1ccc2[nH]c(=O)c(CN(CCCN3CCOCC3)C(=O)Nc3ccc(Cl)cc3)cc2c1,inconclusive: -48.3%
7,CCOC(=O)C1C(=O)OC2(CCOC(C)(C)C2)C1C(=O)OCC (configuration not stated),inconclusive: -38.8%
8,Cc1ccc(S(=O)(=O)N(CC(=O)Nc2cccc([N+](=O)[O-])c2)Cc2ccc(Cl)cc2)cc1,inactive: 34.5%
9,O=C(NC(Cc1ccccc1)c1nc2ccccc2[nH]1)c1ccc(Cl)c([N+](=O)[O-])c1 (configuration not stated),inactive: 9.73%
10,C[C@]1(C(=O)O)Cc2oncc2C[C@@H]1C(=O)O,inconclusive: -47.1%
11,Cc1ccc(C)c(SCC(=O)NCc2ccco2)c1,inactive: 74.1%
12,CCc1nc2sc(C)c(C)c2c(=O)n1CCO,inconclusive: -39.3%
13,O=C(N/N=C/C=C/c1ccccc1)c1cccc(Br)c1,inactive: 24.7%
14,Cc1cc(NS(=O)(=O)c2ccc(NC(=O)CCCC(=O)O)cc2)nc(C)n1,active: -88.4%
15,CCOC(=O)C(C)n1cnc2c1c(=O)[nH]c(=O)n2C (configuration not stated),active: -100%
16,COC(=O)/C(=C\c1c[nH]c2ccccc12)NC(C)=O,inconclusive: -46%
17,CC1CC(=O)N(c2ccc(NCc3ccccc3Cl)c([N+](=O)[O-])c2)C1=O (configuration not stated),inconclusive: -35.7%
18,CCCC(=O)Nc1ccc(Nc2ccccc2)cc1,inconclusive: -56.2%
19,C/C(=N\NC(=O)COc1ccc(C(C)(C)C)cc1)c1cc2ccccc2o1,inactive: 69%

row,SMILES,"activity change (PNC), negative = inhibition"
1,COc1ccc(C(C(=O)NC2CCCCC2)N(C(=O)CCl)c2cccc(Cl)c2)cc1 (configuration not stated),inconclusive: -56.8%
2,COc1ccc(CC(=O)Nc2ccc3c(c2)CCC3)cc1OC,inactive: -7.83%
3,N#Cc1c(-c2ccc(F)cc2)noc1N,inconclusive: -34.6%
4,Clc1ccc(-n2c(SC/C=C/c3ccccc3)nnc2-c2cccnc2)cc1,inconclusive: -53.3%
5,CC(C)n1c(C(O)c2ccc3c(c2)OCO3)nc2ccccc21 (configuration not stated),inconclusive: -31.3%
6,O=C(NCCc1ccccc1)/C(=C/c1ccco1)c1ccccc1,inactive: 44.4%
7,CCCCC(=O)Nc1ccc(C(=O)NNC(=O)CCc2ccccc2)cc1,inconclusive: -34.7%
8,COc1cc(/C=C(\C#N)C(=O)N2CCOCC2)cc(Br)c1O,inconclusive: -59.2%
9,Cn1c(=O)[nH]c(=O)c2c1nc(Br)n2CCC(=O)c1ccccc1,inactive: -4.51%
10,Cc1nn(CC(=O)NCc2ccc(Cl)cc2)c(C)c1[N+](=O)[O-],inactive: 164%
11,CCc1c(C)n([O-])c2c([n+]1=O)CCC2,active: -81%
12,O=C1C=CC(O)(c2cc(=O)c3c(O)cc(O)cc3o2)C=C1,active: -119%
13,COc1cccc(NC(=O)CSc2nc3ccccc3c(=O)n2CCCC(=O)N2CCCC2)c1,inconclusive: -34.8%
14,COc1ccc(-n2c(SCc3ccc([N+](=O)[O-])cc3)nnc2-c2ccccc2)cc1,inconclusive: -40.5%
15,COCCCNC(=O)CN1C(=O)CSc2ncccc21,inconclusive: -55.4%
16,COc1ccc(Nc2ncnc3c2oc2ccccc23)cc1,inconclusive: -42%
17,CC1(C)Cc2cccc(OCC(=O)N3CCN(S(=O)(=O)c4ccccc4F)CC3)c2O1,active: -93.6%
18,Cc1ccc(N2C(=O)[C@@H]3[C@H](C2=O)C2c4ccccc4C=CN2[C@@H]3C(=O)c2ccco2)cc1 (some centres not stated),inactive: -7.41%
19,Cc1ccc(S(=O)(=O)/N=C2\C(=O)c3ccccc3C([O-])=C2n2cc[n+](CCC(C)C)c2)cc1,inconclusive: -42%

# Quoted from the listing:
# Under activity change (PNC), negative = inhibition, COc1cc(/C=C(\C#N)C(=O)N2CCOCC2)cc(Br)c1O has the entry inconclusive: -59.2%
# Under activity change (PNC), negative = inhibition, COc1ccc(Nc2ncnc3c2oc2ccccc23)cc1 has the entry inconclusive: -42%

# Carrying on.

row,SMILES,"activity change (PNC), negative = inhibition"
1,C=CCn1cnc2scc(-c3ccc(C)cc3)c2c1=O,inactive: 38.7%
2,O=c1ccc2c(o1)/C(=C/C=C(Cl)Cl)CCC2,inactive: -21%
3,Cc1cc(NC(=O)Cn2cnc3sc(C)c(-c4ccccc4)c3c2=O)no1,inactive: 102%
4,COC(=O)c1cc2occc2n1CC(=O)Nc1cc(OC)cc(OC)c1,inconclusive: -41.6%
5,COc1cc(OC)cc(C(=O)NC(=S)Nc2ccc(N3CCCC3)cc2)c1,inconclusive: -36.9%
6,COc1ccc(C2Nc3ccccc3C(=O)N2c2ccccc2)cc1Cn1cc([N+](=O)[O-])cn1 (configuration not stated),inactive: 22.1%
7,CC(C)CCNC(=O)Cn1c(=O)oc2cc(S(=O)(=O)N3CCc4ccccc43)ccc21,inconclusive: -30.7%
8,Cc1nn(C)c(C(=O)Nc2ccc(Br)cc2F)c1Br,inconclusive: -31.9%
9,COc1ccc(Oc2c(Cl)cnn(-c3ccc(Cl)c(Cl)c3)c2=O)cc1,inactive: 22.5%
10,N#C/C(=C\c1cccc([N+](=O)[O-])c1)c1nnc2n1CCCCC2,inactive: 31.9%
11,O=C(COc1ccccc1Cl)NCCc1ccc2c(c1)OCCO2,inconclusive: -41.4%
12,CCOC(=O)Cn1c(=O)oc2cc(S(=O)(=O)NCCC(C)C)ccc21,inconclusive: -37.3%
13,CC(=O)Nc1sc(C)c(C)c1C(=O)OC(C)C,inconclusive: -55.5%
14,O=C(c1ccccc1Sc1cccc2ccccc12)N1CCOCC1,inconclusive: -33.3%
15,O=C(CSCc1cccs1)N1CCCC1,inconclusive: -54.5%
16,CN1CCN(S(=O)(=O)c2ccc3c4c(cccc24)C(=O)N3)CC1,active: -90.9%
17,COc1ccc(C(=O)n2nc(-c3ccccc3)nc2N)cc1OC,inconclusive: -49.6%
18,O=C(OCc1nc(-c2ccccc2)oc1COC(=O)c1ccco1)c1ccco1,inconclusive: -34.7%
19,COc1cc(C)nc(N2CCCC(C(=O)Nc3cc(Cl)ccc3OC)C2)n1 (configuration not stated),inactive: 70.9%
